Data from US6387241B1, “Method of sterilization using ozone” (priority 1993, dated 2002).

Assay: Air venting and ozone venting of napthalene in Ottawa sand
[1] = Ottawa sand, air stripping 23 hours followed by ozone-venting 3.2 hours
[2] = dry Ottawa sand, air venting for 37 hours

With `c1ccc2ccccc2c1` [napthalene] the removal [1] was “approx. 99.7%”, the residual [1] was 0.65 mg/L and the removal [2] was “approximately 65%”. It also gave a residual concentration [2] of 23.2 mg/kg soil.
